Our source for the binding values is patent US20080125365A1 (UNIVERSITY OF IOWA RESEARCH FOUNDATION, published 2008).

By UniProt entry, the sequences of proteins in these tests, tags left out. Where a name states a change or a piece, a line headed by the entry shows the natural chain unless it says otherwise. Chains listed by the source or under a name are the forms on record and can include a tag or linker. Residues count along the entry.
UniProt O00206: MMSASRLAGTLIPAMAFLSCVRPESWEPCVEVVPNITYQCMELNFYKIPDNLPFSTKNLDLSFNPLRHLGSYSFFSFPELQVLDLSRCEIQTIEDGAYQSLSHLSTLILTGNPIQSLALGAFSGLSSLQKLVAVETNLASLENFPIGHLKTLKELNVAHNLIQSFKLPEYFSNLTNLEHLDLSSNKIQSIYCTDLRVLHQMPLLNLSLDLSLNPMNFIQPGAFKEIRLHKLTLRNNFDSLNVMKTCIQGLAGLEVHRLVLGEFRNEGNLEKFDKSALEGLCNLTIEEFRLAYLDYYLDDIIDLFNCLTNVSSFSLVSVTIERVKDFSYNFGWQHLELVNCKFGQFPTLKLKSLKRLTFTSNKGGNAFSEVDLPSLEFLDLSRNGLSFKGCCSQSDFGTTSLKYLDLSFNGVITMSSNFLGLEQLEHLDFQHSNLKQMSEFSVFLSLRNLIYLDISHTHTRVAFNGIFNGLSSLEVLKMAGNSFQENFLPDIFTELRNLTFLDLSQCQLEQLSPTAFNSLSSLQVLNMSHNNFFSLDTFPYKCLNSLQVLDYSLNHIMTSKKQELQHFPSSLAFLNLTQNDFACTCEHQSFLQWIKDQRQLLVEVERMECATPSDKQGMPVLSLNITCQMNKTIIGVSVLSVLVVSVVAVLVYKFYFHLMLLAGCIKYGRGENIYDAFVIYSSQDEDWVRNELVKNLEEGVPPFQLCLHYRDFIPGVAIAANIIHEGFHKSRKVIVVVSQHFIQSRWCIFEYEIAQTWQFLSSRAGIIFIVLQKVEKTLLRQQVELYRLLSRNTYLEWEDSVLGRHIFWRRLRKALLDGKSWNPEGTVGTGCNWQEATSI
recombinant soluble TLR4 extracellular domain (amino acids 24-634), FLAG-tagged: residues 24-634 of O00206

These are yes or no findings as the source states them, for the method shown. For some assays here: Binding seen in cells or lysates may run through a third protein. Some results given as binding are weak or reduced against the parent protein; the word gives no strength. For some assays here: Where a sequence is shown, tags or fusion partners need not be part of it.

The target of assay [1] is TLR4 stably expressed on HEK293 cells (HEK/TLR4) (UniProt O00206). Description: cell association of radiolabelled complex with HEK/TLR4 cells.
Assay [2] concerns the target recombinant soluble TLR4 extracellular domain (amino acids 24-634), FLAG-tagged (UniProt O00206). The assay can be described thus: ~75 pM TLR4ECD with increasing [3H]LOS:MD-2, Mr ~190,000 complex by Sephacryl S200 gel filtration.
For assay [3] the target is unchanged. The assay can be described thus: competition of weakly labelled native complex with [3H]LOS:MD-2 for soluble TLR4ECD, gel filtration.
Assay [4] has as its target TLR4 stably expressed on HEK293 cells (HEK/TLR4) (UniProt O00206). Description: cell-associated radioactivity after overnight incubation with HEK/TLR4 cells (0.75 ng/ml 3H-LOS).
The target in assay [5] is recombinant soluble TLR4 extracellular domain (amino acids 24-634), FLAG-tagged (UniProt O00206). Description: gel filtration (Sephacryl S200/S300) of 1 nM [3H]LOS:MD-2 with TLR4ECD medium; co-capture on Ni2+ resin and anti-FLAG M2 agarose; Mr ~190,000 complex.
Assay [6] concerns the target TLR4 stably expressed on HEK293 cells (HEK/TLR4) (UniProt O00206). The assay can be described thus: cell-associated radioactivity after overnight incubation with HEK or HEK/TLR4 cells.
The target in assay [7] is recombinant soluble TLR4 extracellular domain (amino acids 24-634), FLAG-tagged (UniProt O00206). Description: gel filtration of radiolabelled complex with TLR4ECD medium, Scatchard analysis.
Assay [8] addresses T1, TLR4 stably expressed on HEK293 cells (HEK/TLR4) (UniProt O00206 24-839, limits assumed).
T1 construct: whole, on cells; Cells from Eisai Research Institute (Yang et al., 2000) or Invivogen; also called HEK293/TLR4; cellular TLR4
Description: competition on HEK/TLR4 cells: excess free MD-2 against 3H-LOS:MD-2 (0.75 ng/ml), cell-associated radioactivity.

Assay [9] concerns the target TLR4 stably expressed on HEK293 cells (HEK/TLR4) (UniProt O00206). The assay can be described thus: method not described at this place.
Assay [10] shares this target. The assay can be described thus: co-precipitation and/or FACS.
In assay [11] the target is T1, TLR4 stably expressed on HEK293 cells …. The assay can be described thus: FACS of surface MD-2 on HEK293 cells stably expressing TLR4.
In assay [12] the target is recombinant soluble TLR4 extracellular domain (amino acids 24-634), FLAG-tagged (UniProt O00206). Description: co-expression with TLR4ECD, harvested medium incubated 30 min at 37 C with [3H]LOS:sCD14, gel filtration.
For assay [13] the target is unchanged. The assay can be described thus: co-expression in HEK293T cells, medium spiked with [3H]LOS:sCD14, Sephacryl S200 gel filtration.
For assay [14] the target is unchanged. The assay can be described thus: co-expression in HEK293T cells, medium spiked with [3H]LOS:sCD14, Sephacryl S200 gel filtration; ([3H]LOS:MD-2/TLR4ECD)2 formed.
Assay [15] addresses T1, TLR4 stably expressed on HEK293 cells …. The assay can be described thus: co-precipitation and/or FACS.

B1: monomeric complex of wild-type (hexa-acylated) N. meningitidis LOS with wild-type human MD-2-His6 (ligand)
chain: QKQYWVCNSSDASISYTYCDKMQYPISINVNPCIELKRSKGLLHIFYIPRRDLKQLYFNLYITVNTMNLPKRKEVICRGSDDDYSFCRALKGETVNTTISFSFKGIKFSKGKYKCVVEAISGSPEEMLFCLEFVILHQPNSNHHHHHH
notes: mature; Mr ~25,000; Radiolabel (3H or 14C) is on the LOS; also called [^3H]LOS:MD-2; [^3H]LOS:MD-2-His6
With B1, the binding result in assay [1], in assay [2], in assay [3], in [4], in assay [5] and in assay [6] was “binds” in each case. Also, in assay [7], the binding result was “binds”.

B2: soluble recombinant wild-type MD-2-His6 (not complexed to endotoxin), insect cell conditioned medium (protein, human)
chain: QKQYWVCNSSDASISYTYCDKMQYPISINVNPCIELKRSKGLLHIFYIPRRDLKQLYFNLYITVNTMNLPKRKEVICRGSDDDYSFCRALKGETVNTTISFSFKGIKFSKGKYKCVVEAISGSPEEMLFCLEFVILHQPNSNHHHHHH
Consider B2, for which the binding entry in assay [8] is recorded as “binds”.

B3: human MD-2 K125A.F126A double mutant (protein itself, not complexed to endotoxin) (protein, UniProt Q9Y6Y9 19-160, looked up, not shown: small tags and cut ends)
chain: QKQYWVCNSSDASISYTYCDKMQYPISINVNPCIELKRSKGLLHIFYIPRRDLKQLYFNLYITVNTMNLPKRKEVICRGSDDDYSFCRALKGETVNTTISFSFKGIAASKGKYKCVVEAISGSPEEMLFCLEFVILHQPNSN
Take B3: the binding entry in assay [9] and in assay [10] was “binds” each time.

B4: human MD-2 K122A mutant (protein, UniProt Q9Y6Y9 19-160, looked up, not shown: small tags and cut ends)
chain: QKQYWVCNSSDASISYTYCDKMQYPISINVNPCIELKRSKGLLHIFYIPRRDLKQLYFNLYITVNTMNLPKRKEVICRGSDDDYSFCRALKGETVNTTISFSFAGIKFSKGKYKCVVEAISGSPEEMLFCLEFVILHQPNSN
Turning to B4, the binding entry in [11] and in [12] was “binds” throughout.

B5: wild-type human MD-2-FLAG-His expressed in HEK293T or HEK293/TLR4 cells (protein, UniProt Q9Y6Y9 19-160, looked up, not shown: small tags and cut ends)
chain: QKQYWVCNSSDASISYTYCDKMQYPISINVNPCIELKRSKGLLHIFYIPRRDLKQLYFNLYITVNTMNLPKRKEVICRGSDDDYSFCRALKGETVNTTISFSFKGIKFSKGKYKCVVEAISGSPEEMLFCLEFVILHQPNSN
B5: the binding result in assay [13] and in assay [12] was “binds” each time.

B6: human MD-2 F121A.K122A double mutant (protein, UniProt Q9Y6Y9 19-160, looked up, not shown: small tags and cut ends)
chain: QKQYWVCNSSDASISYTYCDKMQYPISINVNPCIELKRSKGLLHIFYIPRRDLKQLYFNLYITVNTMNLPKRKEVICRGSDDDYSFCRALKGETVNTTISFSAAGIKFSKGKYKCVVEAISGSPEEMLFCLEFVILHQPNSN
Turning to B6, the binding entry in [14], in [11], in assay [12] and in assay [15] was “binds” throughout.

B7: human MD-2 K132A mutant (protein, UniProt Q9Y6Y9 19-160, looked up, not shown: small tags and cut ends)
chain: QKQYWVCNSSDASISYTYCDKMQYPISINVNPCIELKRSKGLLHIFYIPRRDLKQLYFNLYITVNTMNLPKRKEVICRGSDDDYSFCRALKGETVNTTISFSFKGIKFSKGKYACVVEAISGSPEEMLFCLEFVILHQPNSN
Take B7: the binding result in assay [11] and in assay [12] was “binds” throughout.
